Experiment: general procedure: Fmoc solid-phase peptide synthesis; 2-chlorotrityl resin; HATU/DIEA
Details: whole synthesis, TFA salt; for final HPLC purity: Reversed-phase HPLC analysis; for final HPLC purity / isolated yield: scale of the general procedure 0.340 mmol

Row | Substance | final HPLC purity [%] | isolated mass [mg] | isolated yield [%]
1 | MeVal-Val-Dil-Dap-L-4-Thiazolylalanine | 98 | 357 | 87
2 | MeVal-Val-Dil-Dap-Trp(Boc)-OH | 98 | 151.7 | 42
3 | MeVal-Val-Dil-Dap-L-β-homophe-OH | 98 | 282.9 | 99
4 | MeVal-Val-Dil-Dap-Tic-OH | 98 | 178.40 | 55
5 | MeVal-Val-Dil-Dap-3-(3-pyridyl)-L-Ala-OH | 98 | 388.6 | 94
6 | MeVal-Val-Dil-Dap-Boc-p-Amino-Phe-OH | 98 | 210.6 | 48
7 | MeVal-Val-Dil-Dap-Leu-OH | 98 | 217.4 | 62
8 | MeVal-Val-Dil-Dap-Me-Phe-OH | 98 | 62.3 | 26
9 | MeVal-Val-Dil-Dap-Glu(OtBu)-OH | 98 | 219.4 | 55
10 | MeVal-Val-Dil-Dap-2-Chloro-Phe | 96 | 200 | 67
11 | MeVal-Val-Dil-Dap-3-cyclohexyl-L-Ala-OH | 98 | 343.4 | 99
12 | MeVal-Val-Dil-Dap-Met-OH | 98 | 90.7 | 82
